Assay results taken from article PMC6288840.

Chains of the proteins cited; added tags and fusions are not shown.
UniProt P22147: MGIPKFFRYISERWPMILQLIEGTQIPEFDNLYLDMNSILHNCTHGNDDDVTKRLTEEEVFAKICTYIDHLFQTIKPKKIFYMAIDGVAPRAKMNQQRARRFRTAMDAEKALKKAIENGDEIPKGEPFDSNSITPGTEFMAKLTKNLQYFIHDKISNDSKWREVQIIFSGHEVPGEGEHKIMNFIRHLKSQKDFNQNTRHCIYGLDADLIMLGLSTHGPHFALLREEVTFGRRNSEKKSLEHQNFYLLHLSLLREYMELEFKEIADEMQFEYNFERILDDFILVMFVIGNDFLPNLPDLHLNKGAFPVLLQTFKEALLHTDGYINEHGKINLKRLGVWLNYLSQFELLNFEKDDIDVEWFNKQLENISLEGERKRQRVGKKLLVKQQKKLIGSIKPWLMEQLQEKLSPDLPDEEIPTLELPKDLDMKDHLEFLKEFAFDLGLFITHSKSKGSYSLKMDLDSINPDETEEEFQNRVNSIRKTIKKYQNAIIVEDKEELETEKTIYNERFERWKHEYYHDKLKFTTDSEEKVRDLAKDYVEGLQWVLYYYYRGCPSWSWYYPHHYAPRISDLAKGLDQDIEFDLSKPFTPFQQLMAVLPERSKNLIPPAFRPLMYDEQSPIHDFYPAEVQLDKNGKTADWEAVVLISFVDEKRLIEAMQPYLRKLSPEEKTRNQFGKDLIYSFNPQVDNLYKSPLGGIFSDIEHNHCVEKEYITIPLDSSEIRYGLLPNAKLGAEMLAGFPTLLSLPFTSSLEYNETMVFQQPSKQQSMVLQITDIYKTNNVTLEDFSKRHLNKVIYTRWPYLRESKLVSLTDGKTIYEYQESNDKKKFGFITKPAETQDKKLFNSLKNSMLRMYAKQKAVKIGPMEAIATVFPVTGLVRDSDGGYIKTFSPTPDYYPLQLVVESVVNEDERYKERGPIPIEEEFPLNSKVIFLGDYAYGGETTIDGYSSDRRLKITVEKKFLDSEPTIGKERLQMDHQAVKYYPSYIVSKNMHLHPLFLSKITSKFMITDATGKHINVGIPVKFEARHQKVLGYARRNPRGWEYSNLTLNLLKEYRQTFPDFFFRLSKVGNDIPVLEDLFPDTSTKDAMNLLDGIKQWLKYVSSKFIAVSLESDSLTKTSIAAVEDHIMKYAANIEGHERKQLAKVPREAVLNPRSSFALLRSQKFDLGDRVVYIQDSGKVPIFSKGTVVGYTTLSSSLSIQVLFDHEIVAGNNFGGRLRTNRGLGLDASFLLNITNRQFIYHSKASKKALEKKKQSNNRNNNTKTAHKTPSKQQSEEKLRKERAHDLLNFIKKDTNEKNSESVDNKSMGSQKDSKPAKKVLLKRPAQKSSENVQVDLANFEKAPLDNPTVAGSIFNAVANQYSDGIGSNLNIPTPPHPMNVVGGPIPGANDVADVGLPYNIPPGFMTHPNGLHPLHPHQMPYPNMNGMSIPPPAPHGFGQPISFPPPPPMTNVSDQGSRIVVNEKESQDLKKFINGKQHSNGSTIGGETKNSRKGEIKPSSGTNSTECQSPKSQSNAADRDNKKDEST

Biological target: Xrn1-Flag (S. cerevisiae) (UniProt P22147)
Experiment: affinity purification with mass spectrometry; reciprocal SILAC; Xrn1-Flag IP from wild type and rad53 deletion cells treated with 2 ug/mL 4-NQO for 60 min

B1: YMR196W (endogenous) (protein, UniProt Q04336 1-1088)
chain: MNKLRDKFVDSTVEEERLRENRNHEKYWYRWGPYLSERSWATVREDYSLNGDAWSNFPFEHANARVFRWGEDGLFGVSDNKQLVCMNVALWNGKDERLKERLFGLTGPQGNHGEDVKELYFYLDNTPTHSYMKALYKYPFKKAFPYKELVQKNGERGYEDKEFEVYDIDGLYRDSETGDNPYFDVFFEMAKDDENPSELNFRLTIHNRSKIDSGELYIAPQLFFRNTWAFDGTRTKDKPLLERDAEAANLINMTHKKYGNCQMVFQPSPGGFSSGTNEEEEDKEVEDIDPLLLFTDNESNLVKLFNEEKNPSEYTKDAFEEYLVQGKTDAVNPENKGTKACAVYHFKNIPPGEYVTVRYKFTNDPKNSIFKAQNLAVVDEDEFDLIFDNREEEADNFYWRITPLPISDELRNLQRQAFSGLLWTKQFYNFTYDAWYNGDANVKPRPPPNRANGRNKNWKHLYIEDILSMPDKWEYPFFASWDTAFHCIPLAMIDPEFAKRQLDLLTREWYMHPNGQIPAYEWNFNDVNPPVHAWAVYRVFKIERNMYNREDRTFLERVFQKLLLNFTWWVNRKDTEGKNVFEGGFLGLDNIGVFNRSEPLPTGGTLEQADSTGWMAFFSLQMLNIALELAKENPVYEDIASKFFEHFILISDSMSFEYATDITGEKCKEVIKQNLWNEADKFYYDAISWGDHKVQLPIRSLVGLIPLYASMTLEPSIIKQFRGFKKRVDWFVNNRPEIFDRNIASMSKKGVGERLLLSLVTKERLTAILSRLLDETEFLSPYGIRSLSKYHEKHPFEMNVNGVEYMVKYLPGESDSGMFGGNSNWRGPIWFPTSFLIMEALQRFYLYYGSDFKVECPVGSGDYLNLAEVAEELGYRMIHLFVPDENGERAIHYGDHSKFLSSDPYFRDYVPFFEYFDGDTGRGLGASHQCGWTALVAKWISDVGISCVRLPRTPRSSVATTASTESSEQGPKMKRMARRKSAKSLVNYTATILDLTEEEKRHHRIGGTHSGLTPQSSISSDKARHLMEEMNEEEGIHETVVPEDRHNFETKLIGKLKDKVKNMKVTDKAKDEDIDPMDPMSPLNKDVS
  binding: binds

B2: Hsp26 (endogenous) (protein, UniProt P15992 1-214)
chain: MSFNSPFFDFFDNINNEVDAFNRLLGEGGLRGYAPRRQLANTPAKDSTGKEVARPNNYAGALYDPRDETLDDWFDNDLSLFPSGFGFPRSVAVPVDILDHDNNYELKVVVPGVKSKKDIDIEYHQNKNQILVSGEIPSTLNEESKDKVKVKESSSGKFKRVITLPDYPGVDADNIKADYANGVLTLTVPKLKPQKDGKNHVKKIEVSSQESWGN
  binding: binds

B3: Mss116 (endogenous) (protein, UniProt P15424 27-664)
chain: NHITWAVSRRLYNDGNRDQRNFGRNQRNNNSNRYRNSRFNSRPRTRSREDDDEVHFDKTTFSKLIHVPKEDNSKEVTLDSLLEEGVLDKEIHKAITRMEFPGLTPVQQKTIKPILSSEDHDVIARAKTGTGKTFAFLIPIFQHLINTKFDSQYMVKAVIVAPTRDLALQIEAEVKKIHDMNYGLKKYACVSLVGGTDFRAAMNKMNKLRPNIVIATPGRLIDVLEKYSNKFFRFVDYKVLDEADRLLEIGFRDDLETISGILNEKNSKSADNIKTLLFSATLDDKVQKLANNIMNKKECLFLDTVDKNEPEAHERIDQSVVISEKFANSIFAAVEHIKKQIKERDSNYKAIIFAPTVKFTSFLCSILKNEFKKDLPILEFHGKITQNKRTSLVKRFKKDESGILVCTDVGARGMDFPNVHEVLQIGVPSELANYIHRIGRTARSGKEGSSVLFICKDELPFVRELEDAKNIVIAKQEKYEPSEEIKSEVLEAVTEEPEDISDIVISLISSYRSCIKEYRFSERRILPEIASTYGVLLNDPQLKIPVSRRFLDKLGLSRSPIGKAMFEIRDYSSRDGNNKSYDYDDDSEISFRGNKNYNNRSQNRDYDDEPFRRSNNNRRSFSRSNDKNNYSSRNSNIY
  binding: binds

B4: Arx1 (endogenous) (protein, UniProt Q03862 1-593)
chain: MALAISHEDTQILLKDKNILQESVLNKYRTAGQIAQTALKYVTSLINDSYHSKTTQRQLTVPELCLLTDSFILTRLEQYYKNKVNERGIAIPTTIDIDQISGGWCPEIDDTQNLLNWNKGKDSTFASSVTGTLRPGDLVKITLGVHIDGYTSEVSHTMVIYPVDETKPILQPTGPLLGGKADAVAAAHIAMETVVALLACALTPEKLPASLGGTSSGITGQLIRTIVDTIARSYNCGVVPGSRVRRIRRFLAGQNEGIVAEREYKGVVWTESHQEADLLSNTDAKDLTVVDRGQSTPFTNVSAIPSDDFVVQSGEVYLIDLKMASLEHCTKKGLVTLETVDSYTGKSHKAGELIARPGAYVRDFAQTHILKLKTSRQLLTKIDKQGVYPFKLSHLSSNFPFVHENEEELQSLKKDLKSFRLGMSEISNNYLCVESPIQIARWVPWDHILKATNPNGNLSYDATSTLTLPGHELPLPKLGVSAIKLKSLMNSTKESISLPVARECNTIVLCDSSVSTTDRPELLRLTGGSKTCQPSWIHSQHELNPQDSIVQGIFQLATLAKDKRFGLLLKETQPMKQKSVETSNGGVEETMKM
  binding: binds

No constants are given. Whether binding was seen depends on the method and setting. In cells and extracts the contact can be indirect. These calls come from enrichment with a bait or labelling near it, and not all partners need be listed.
